Results: the supplement of paper PMC7411640
Structures can show the parent of a compound that is named as a salt. The list shows a part of the results. Most values lie within the scatter of the assay; repeated measurements hardly agree.

System: MDA-MB-468
Assay: phospho-S6 immunofluorescence (DAPI-normalised), per-plate z-score; higher = higher phospho-S6 signal (less pathway suppression)
Details: 24 h
Procedure: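 GPCR-targeted compound library (MedChemExpress HY-L006) tested on MDA-MB-468 PTEN-null TNBC cells in 384-well plates at 0.1, 1 or 10 uM, combined with vehicle, GDC0941 450 nM or lapatinib 1 uM, for 24 h. Phospho-S6 (S240/244) immunofluorescence normalised to DAPI and expressed as a per-plate z-score; values are the mean of biological triplicates.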

[1] = compound 0.1 µM, co-treatment: GDC0941 450 nM
[2] = compound 0.1 µM, co-treatment: lapatinib 1 uM
[3] = compound 0.1 µM, co-treatment: vehicle
[4] = compound 1 µM, co-treatment: GDC0941 450 nM
[5] = compound 1 µM, co-treatment: lapatinib 1 uM
[6] = compound 1 µM, co-treatment: vehicle
[7] = compound 10 µM, co-treatment: GDC0941 450 nM
[8] = compound 10 µM, co-treatment: lapatinib 1 uM
[9] = compound 10 µM, co-treatment: vehicle

Structure (SMILES)	phospho-S6 immunofluorescence (z-score) [1]	phospho-S6 immunofluorescence (z-score) [2]	phospho-S6 immunofluorescence (z-score) [3]	phospho-S6 immunofluorescence (z-score) [4]	phospho-S6 immunofluorescence (z-score) [5]	phospho-S6 immunofluorescence (z-score) [6]	phospho-S6 immunofluorescence (z-score) [7]	phospho-S6 immunofluorescence (z-score) [8]	phospho-S6 immunofluorescence (z-score) [9]
CN1CCC(=C2c3ccccc3CCn3c(C=O)cnc32)CC1 [Alcaftadine]	-0.17	0.86	-1.14	-0.86	0.15	-1.42	-0.88	1.09	-0.66
CCc1cnc(N2CCC(c3nc(COc4ccc(-n5cnnn5)cc4)cs3)CC2)nc1	-1.75	0.15	0.09	-4.91	-2.75	-1.67	-3.23	-3.56	-6.72
CC(CN(C)C)CN1c2ccccc2CCc2ccccc21 (stereo unspecified) [Trimipramine (maleate)]	-0.45	-0.25	-0.16	-1.11	-1.25	-0.14	-1.05	-2.53	-0.39
CCc1c(C(=O)NCCc2ccc(N3CCCCC3)cc2)[nH]c2ccc(Cl)cc12	-0.41	0.08	0.79	0.15	0.27	-0.03	-1.02	-0.3	0.27
Cc1ccc2c(c1CCC(=O)O)CC[C@@H](NS(=O)(=O)c1ccc(Cl)cc1)C2 [Terutroban]	-1.31	-0.82	-0.19	-0.89	-0.88	-0.59	-0.9	0.55	-0.1
c1ccc2c(c1)CCCC2C1=NCCN1 (stereo unspecified) [Tetrahydrozoline (hydrochloride)]	0.36	0.46	-0.03	0.71	0.12	0.05	0.32	0.87	0.75
O=C(Nc1ccc([N+](=O)[O-])cc1O)Nc1ccccc1Br	4.67	6.56	3.81	-2.21	5.62	2.77	-1.44	0.89	-0.39
OCCOCCN1CCN(C(c2ccccc2)c2ccccc2)CC1 [Decloxizine (dihydrochloride)]	-1.03	-1.46	-0.84	-0.09	-0.56	0.19	0.55	-0.6	-0.19
N[C@@H](COP(=O)(O)O)C(=O)O [O-Phospho-L-serine]	-1.22	-2.21	-1.79	-0.35	-0.71	-2.19	0.23	0.05	-0.66
C[C@H]1C[C@H]2[C@@H]3CCC4=CC(=O)C=C[C@]4(C)[C@H]3C(=O)C[C@]2(C)[C@@]1(O)C(=O)CO [Meprednisone]	0.2	-1.69	-0.35	0.86	0.29	0.77	0.11	-0.5	-0.52
O=C(c1ccc(OCCCc2c[nH]cn2)cc1)C1CC1 [Ciproxifan (maleate)]	0.77	-0.42	1	1.1	0.37	0.28	-0.58	-0.62	0.21
CCCNS(=O)(=O)Nc1ncnc(OCCOc2ncc(Br)cn2)c1-c1ccc(Br)cc1 [Macitentan]	0.74	0.69	-0.12	0.06	-0.21	0.45	0.32	0.71	-0.16
C[N+]1(C)CCC(=C(c2ccccc2)c2ccccc2)CC1 [Diphenmanil (methylsulfate)]	-0.12	0.17	1.51	0.29	0.24	-0.02	0.46	0.06	0.8
CN(C)CCOC(C)(c1ccccc1)c1ccc(Cl)cc1 (stereo unspecified) [Chlorphenoxamine]	-0.16	-0.81	-0.43	1.03	0.74	-0.25	-4.26	-7.36	-4.5
CCCc1nc2c(C)cc(-c3nc4ccccc4n3C)cc2n1Cc1ccc(-c2ccccc2C(=O)O)cc1 [Telmisartan]	0	0.4	0.35	-0.27	-0.49	0.3	0.54	1.6	0.35
CCCCCCn1c(O)c(N=NC(=O)c2ccccc2)c2ccccc21	-0.9	-1.06	0.05	-1.06	0	0.21	-2.97	-0.75	0.59
c1cc(CN2CCCNCCNCCCNCC2)ccc1CN1CCCNCCNCCCNCC1 [Plerixafor]	-0.44	-0.27	-0.58	-0.33	-0.4	0.18	-0.31	0.01	0.2
CC(C)NCC(O)c1ccc(NS(C)(=O)=O)cc1 (stereo unspecified) [Sotalol (hydrochloride)]	0.82	0.77	1.24	1.23	0.26	-0.11	1.31	1.24	0.37
N=C(N)NCCCCN [Agmatine (sulfate)]	0.23	0.3	-0.72	0.45	-0.2	0.35	0.88	-0.16	0.73
CC(=O)OCC(=O)[C@@]12OC(C)(C)O[C@@H]1C[C@H]1[C@@H]3C[C@H](F)C4=CC(=O)C=C[C@]4(C)[C@@]3(F)[C@@H](O)C[C@@]12C [Fluocinonide]	-1	0.12	0.81	-1.4	0.44	0.21	-0.28	0.59	0.62

Looked up above.
phospho-S6 immunofluorescence (z-score) [4] with CC(=O)OCC(=O)[C@@]12OC(C)(C)O[C@@H]1C[C@H]1[C@@H]3C[C@H](F)C4=CC(=O)C=C[C@]4(C)[C@@]3(F)[C@@H](O)C[C@@]12C [Fluocinonide] is entered as -1.4
phospho-S6 immunofluorescence (z-score) [3] with c1cc(CN2CCCNCCNCCCNCC2)ccc1CN1CCCNCCNCCCNCC1 [Plerixafor] is entered as -0.58

Following part

Structure (SMILES)	phospho-S6 immunofluorescence (z-score) [1]	phospho-S6 immunofluorescence (z-score) [2]	phospho-S6 immunofluorescence (z-score) [3]	phospho-S6 immunofluorescence (z-score) [4]	phospho-S6 immunofluorescence (z-score) [5]	phospho-S6 immunofluorescence (z-score) [6]	phospho-S6 immunofluorescence (z-score) [7]	phospho-S6 immunofluorescence (z-score) [8]	phospho-S6 immunofluorescence (z-score) [9]
OC[C@@H](O)CN1CCN(c2ccccc2)CC1 [Levodropropizine]	-0.47	0.47	-0.26	-0.89	-0.62	-1.05	-0.63	0.66	-0.68
COc1nc(C)nc(Cl)c1NC1=NCCN1 [Moxonidine]	-0.5	0.1	0.38	0.27	-0.04	0.23	0.49	0.68	0.7
CC(C)(Cc1ccc2ccccc2c1)NC[C@@H](O)COc1cccc(Cl)c1C#N	-0.5	-0.11	-0.99	-2.19	-5.25	-1.49	-3.37	-8.76	-10.1
CCCc1nc(C(C)(C)O)c(C(=O)O)n1Cc1ccc(-c2ccccc2-c2nnn[nH]2)cc1 [Olmesartan]	-0.36	-0.83	-1.03	-0.01	0.14	-0.34	0.13	0.28	-0.82
CC(C)NCC(O)COc1ccc(CCOCC2CC2)cc1 (stereo unspecified) [Betaxolol]	-0.77	0.92	-1.33	-0.71	0.76	-0.1	0.15	0.69	-0.54
CN1CCN2c3ccccc3Cc3ccccc3C2C1 (stereo unspecified) [Mianserin (hydrochloride)]	0.67	0.12	1	-0.3	-0.29	0.72	1	-0.76	1.67
O=C(O[C@H]1CN2CCC1CC2)N1CCc2ccccc2[C@@H]1c1ccccc1 [Solifenacin (Succinate)]	-1.04	0.9	-1.67	-0.82	0.18	-0.07	1.65	1.13	-0.65
CN(C)CCC(c1ccc(Cl)cc1)c1ccccn1 (stereo unspecified) [Chlorpheniramine (maleate)]	-0.6	-1.36	-0.19	-4.49	-2.23	-0.47	-5.85	-10.5	-8.97
Cc1ccccc1C(=O)Nc1ccc(C(=O)N2CCCC(O)c3cc(Cl)ccc32)c(C)c1 (stereo unspecified) [Tolvaptan]	-1.73	-0.73	-0.31	0.22	-1.57	0.34	0.01	-1.6	-0.25
Cc1cccn2c(=O)c(-c3nnn[nH]3)cnc12 [Pemirolast (potassium)]	-0.69	-0.66	-0.93	0.65	-0.06	-1.05	-0.3	-0.65	-1.33
O=c1ccc2ccc(OCCCCN3CCN(c4cccc5sccc45)CC3)cc2[nH]1 [Brexpiprazole]	0.89	-0.12	-0.44	0.71	-0.04	0.43	-5.22	-6.92	-4.57
CN1CCN2c3ncccc3Cc3ccccc3C2C1 (stereo unspecified) [Mirtazapine]	0.2	0.22	-0.87	0.47	0.96	-1.75	0.65	0.99	-0.48
CN1[C@@H]2CC[C@H]1C[C@@H](OC(=O)c1c[nH]c3ccccc13)C2 [Tropisetron]	-0.46	0.03	-0.5	0.32	0.72	0.77	0.73	1.44	0.31
COc1ccc(CCN2CCN(CCCc3ccccc3)CC2)cc1OC [SA4503 (dihydrochloride)]	-0.53	-0.23	-0.24	-0.16	0.52	0.2	0.13	-0.13	-0.47
OCCOCCN1CCN(Cc2cccc(Oc3ccccc3)c2)CC1	-1.45	-0.24	-0.94	-1.1	0.99	0.01	-0.36	0.35	-1.04
CCCc1nc(C(C)(C)O)c(C(=O)OCc2oc(=O)oc2C)n1Cc1ccc(-c2ccccc2-c2nnn[nH]2)cc1 [Olmesartan (medoxomil)]	0.4	0.18	0.06	-0.05	-0.37	0.51	-0.4	-0.27	-0.03
Cc1c(C(=O)NN2CCCCC2)nn(-c2ccc(Cl)cc2Cl)c1-c1ccc(Cl)cc1 [Rimonabant (Hydrochloride)]	-0.27	-0.27	0.21	-1.79	-1.08	-0.39	-3.49	-4.25	-5.97
Cn1c(=O)c2nc[nH]c2n(C)c1=O [Theophylline]	0.72	0.04	1.19	-0.2	0.53	0.18	0.11	0.16	0.71
Cn1c(=O)c2c(ncn2CC(=O)O)n(C)c1=O [Acefylline]	0.29	-0.35	-0.77	0.57	-0.66	-1.07	0.4	0.37	-0.98
